For experiment [1], the target named is T1, CXCR3 (Homo sapiens, UniProt P49682). The experiment is described as follows: Chemotaxis assay ITAC (CXCL11), L1.2-CXCR3 cells. The settings on record: read-out: Chemotaxis/ITAC, 1 nM CXCL11 (I-TAC), 4 hours.
Experiment [2] concerns the target T1, CXCR3. The experiment is described as follows: CXCR3 Ca2+ mobilization (FLIPR), stable hCXCR3-CHO cell line, I-TAC stimulated. The settings on record: read-out: Ca-ITAC; hCXCR3-CHO cells, I-TAC 100 nM stimulated Ca2+ response. On the technique in general: Calcium flux is commonly read through the fluorescence of an indicator in the cells.
The target of experiment [3] is T1, CXCR3. Nature of the experiment: Chemotaxis assay IP10, L1.2 recombinant cells expressing hCXCR3. As to conditions: read-out: L1.2 chemotaxis IC50 (μM) IP10; L1.2 hCXCR3 cells, IP10 around 0.3 nM, 4 hours.

By UniProt entry, the sequences of proteins in these tests, tags left out.
UniProt P49682, whole entry: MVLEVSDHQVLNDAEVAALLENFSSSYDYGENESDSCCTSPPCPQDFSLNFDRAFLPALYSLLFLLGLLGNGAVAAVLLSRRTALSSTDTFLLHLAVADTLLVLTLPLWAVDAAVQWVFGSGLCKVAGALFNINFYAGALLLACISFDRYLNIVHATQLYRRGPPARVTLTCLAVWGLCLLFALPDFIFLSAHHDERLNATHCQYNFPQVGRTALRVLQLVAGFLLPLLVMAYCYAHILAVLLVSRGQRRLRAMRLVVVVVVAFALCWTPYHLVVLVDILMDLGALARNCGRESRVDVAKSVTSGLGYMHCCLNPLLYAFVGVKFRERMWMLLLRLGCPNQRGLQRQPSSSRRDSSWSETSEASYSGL

SMILES strings stand for the structures. The structures given here were assigned with low confidence; some may be wrong.

For the molecule `CCOc1ccc(S(=O)(=O)N(Cc2ccc(C(=O)NCC(O)c3ccccc3)cc2)Cc2cccnc2)cc1` (stereo not shown), the IC50 stood at 0.17 µM on CXCR3 [1], 0.03 µM at CXCR3 [2] and 0.05 µM on CXCR3 [3].
As for `CCOc1ccc(S(=O)(=O)N(Cc2ccc(C(=O)NCCc3cccc(Cl)c3)cc2)Cc2cccnc2)cc1`, at CXCR3 [2], the IC50 is 1.9 µM.

Values taken from patent publication US20110028509A1, “Sulfonamides” (MERCK SERONO SA, priority 2008, published 2011).
